Some of the results follow. Further columns of the screen follow, without active or inactive calls. Compounds called inactive in the main read-out are mostly missing here. The note in brackets gives the kind of curve behind each potency; many fits are weak.
Experiment: qHTS Assay for Lipid Storage Modulators in Drosophila S3 Cells;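 as to cell number change: cells counted by Cell Tracker Red CMTPX staining in the red channel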
Details: BODIPY lipid droplet fluorescence, 18-24 h; for cell number change: measured here: cell count max response, cells fed with added oleic acid
Summary of the method: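 Laser-scanning cytometry quantifies lipid droplet accumulation (500–530 nm total intensity; droplet/cell object ratio) in oleic acid-fed (400 uM added) Drosophila S3 cells treated with a concentration series. 20 uM Triacsin C defined 100% inhibition.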

[1] = measured here: lipid fluorescence (Fed channel) AC50, cells fed with added oleic acid
[2] = measured here: cell number channel AC50, cells fed with added oleic acid

Structure (SMILES)	cell number change	AC50 [1]	AC50 [2]
COc1cc(/C=C/C(=O)O)cc(OC)c1OC	-36.5%	0.116 µM [falling, full curve]	
Cc1ccc(C)c(N2CCN(c3nnnn3-c3ccccc3)CC2)c1	32.2%	0.206 µM [rising, full curve]	0.13 µM [rising, full curve]
CC(C)c1ccc(OCC(=O)N2CCN(c3ccccn3)CC2)c(Br)c1	-2.48%	0.58 µM [rising, single point]	
CC(C)(C)OC(=O)CC[C@@H](C(=O)N1CCN(C(=O)OC(C)(C)C)CC1)n1cc(C(Cc2ccc(O)cc2)NC(=O)OC(C)(C)C)nn1 (stereo partly drawn)	-13.3%	0.82 µM [falling, full curve, poor fit]	0.731 µM [falling, partial curve, poor fit]
Cc1cc(NC(=O)CN2C(=O)NC(Cc3ccccc3)C2=O)no1 (stereo not drawn)	-67%		25.9 µM [falling, single point]
CCOc1ccc(OCC)c(NS(=O)(=O)c2cccc3nsnc23)c1	-18.2%	0.0259 µM [rising, full curve]	
CC1CC(C)(C)N(C(=O)NC2CCCCC2)c2ccccc21 (stereo not drawn)	23.1%	4.11 µM [rising, full curve, poor fit]	
CCC(C)c1ccccc1N1CC(C(=O)N2CCN(S(=O)(=O)c3cccc([N+](=O)[O-])c3)CC2)CC1=O (stereo not drawn)	-68%		18.4 µM [falling, partial curve, poor fit]
COc1ccc(C(CC(=O)O)NC(=O)COc2ccccc2)cc1OC (stereo not drawn)	148%		23.1 µM [rising, single point]
Cc1cc(Cl)ccc1NC(=S)NCCc1ccc(Cl)cc1		4.11 µM [falling, full curve, poor fit]	
COc1ccc(CC(=O)Nc2cccc3ncccc23)cc1OC	5.19%	6.51 µM [rising, single point]	6.51 µM [rising, single point]
CCC(C)C(=O)Nc1nc(C)c(-c2csc(Nc3ccccc3OC)n2)s1 (stereo not drawn)	-28.9%	6.51 µM [falling, full curve, poor fit]	
CCOC(=O)c1ccc(NC(=S)Nc2cccc(C)n2)cc1	-39.4%	0.651 µM [falling, full curve, poor fit]	29.1 µM [falling, single point]
COc1cccc(/C=N/n2cnc3cc(C)c(C)cc32)c1OC	-22.5%	32.6 µM [falling, single point]	
O=C(Nc1nc(-c2ccc(Cl)cc2Cl)cs1)C1CCCO1 (stereo not drawn)	20.4%	4.11 µM [rising, full curve, poor fit]	
CCOc1cc2[nH]c(=S)n(Cc3ccc(C(=O)N4CCN(C)CC4)cc3)c(=O)c2cc1OCC	-23.6%	4.11 µM [rising, partial curve]	
Cc1cc(C)c2c(=O)n(CC(=O)Nc3ccc(Cl)cc3)sc2n1	-61.1%	18.4 µM [falling, partial curve]	32.6 µM [falling, partial curve, poor fit]
COc1cccc(/C(C)=N/Nc2ccc(S(=O)(=O)N3CCCCC3)cn2)c1	-14%	32.6 µM [falling, single point]	
CN=c1sc2ccccc2n1CC(O)c1ccccc1 (stereo not drawn)	-22.8%	0.146 µM [falling, full curve, poor fit]	0.164 µM [falling, full curve, poor fit]
O=C(Oc1ccccc1O)c1cccc2ccccc12	-50.7%	1.16 µM [falling, full curve]	1.03 µM [falling, full curve, poor fit]
Cc1nn(Cc2ccccc2)c2sc(C(=O)NCc3cccnc3)cc12	-21.6%		
CC(NC(=O)c1cc2cc([N+](=O)[O-])ccc2oc1=O)C1CCCO1 (stereo not drawn)	14.8%	18.4 µM [rising, single point]	0.461 µM [falling, single point]
CC1(C)Cc2nc3sc4c(SCC(=O)NC(c5ccccc5)c5ccccc5)ncnc4c3cc2CO1	-7.94%	0.164 µM [falling, full curve, poor fit]	
O=c1c(-c2ccccc2Cl)coc2c(CN3CCCCC3)c(O)ccc12		0.58 µM [falling, single point]	
CCc1ccc(CNC(=O)c2ccc(OC3CCN(C(C)=O)CC3)c(OC)c2)nc1	31.9%	29.1 µM [rising, single point]	0.092 µM [rising, full curve]
CC(=O)N1CCN(c2ccccc2NC(=O)c2cccc3c(Cl)cccc23)CC1	34.5%		0.00461 µM [rising, full curve, poor fit]

Fetched by structure from the list above, 2 records:
Structure (SMILES)	cell number change	AC50 [1]	AC50 [2]
Cc1cc(Cl)ccc1NC(=S)NCCc1ccc(Cl)cc1		4.11 µM [falling, full curve, poor fit]	
CC(NC(=O)c1cc2cc([N+](=O)[O-])ccc2oc1=O)C1CCCO1 (stereo not drawn)	14.8%	18.4 µM [rising, single point]	0.461 µM [falling, single point]

From PubChem BioAssay AID2685 (National Center for Advancing Translational Sciences (NCATS), 2010)
